Values joined by “and” are separate entries in the source; they are usually repeats but may differ in a detail not shown here. Equal values may be shown once. Among all 320,000 compounds or so, about 22,000 (6.9%) were called active. The inconclusive results got no clear call from the source; some entries with a clear call stand among them for comparison. The call rests on the fitted dose curve; in most records, active means well fitted inhibition curve with a large enough effect; inconclusive means small, poorly fitted or top-dose-only effect, or another doubt; inactive means no such curve, though single readings can be large or run the other way. Where the call is inconclusive, the potency comes from a doubtful curve fit.
Experiment: Primary qHTS for delayed death inhibitors of the malarial parasite plastid, 96 hour incubation
Details: P. falciparum luciferase reporter growth; series mostly up to 28.7 µM; activity change, negative = inhibition: at the top concentration
Procedure, shortened: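 P. falciparum expressing integrated firefly luciferase, in erythrocytes at 2% hematocrit, 0.05% parasitemia, incubated with compounds 96 h at 37 C, 5% CO2. Growth inhibition read as loss of luminescence; two-generation exposure targets delayed-death apicoplast inhibitors.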
On the % scale 0 is the no-effect control and ±100 the full control effect; potency means the concentration at half of the fitted maximal effect.

Structure (SMILES)	Potency	activity change, negative = inhibition
CC1CC(C)CN(c2oc(Cc3ccccc3)nc2C#N)C1 (stereo unspecified)	inconclusive: 18.5 µM [inhibitor, single point]	–
O=C(CC12CC3CC(CC(Br)(C3)C1)C2)NC1=NCCS1	inconclusive: 0.465 µM [inhibitor, full curve]	–
CSC(=NC#N)N1CCN(c2ccccc2)CC1	–	inactive: 1.71%
CCCc1nnc(SCC(=O)N2CCCC(C)C2)n1CCOC (stereo unspecified)	inconclusive: 14.7 µM [inhibitor, single point]	–
O=C(/C=C/c1c(Cl)nc2ccccn12)N1CCCCC1	–	inactive: 111%
CC(=O)Nc1ccc(S(=O)(=O)N2CCN(S(=O)(=O)N3CCCCCC3)CC2)cc1	inconclusive: 13.1 µM [inhibitor, single point]	–
O=S(=O)(Nc1ccccn1)c1ccc(C2CCCCC2)cc1	active: 9.28 µM	–
CCOC(=O)c1c(NC(=O)C2CCCCC2)sc2c1CCN(C(C)C)C2	active: 13.1 µM	–
CC(=O)Nc1cccc(NC(=O)c2c(-c3ccccc3)noc2C)c1	inconclusive: 0.465 µM [inhibitor, partial curve, poor fit]	–
O=C(c1ccc(OC2CCN(C(=O)c3cccnc3)CC2)cc1)N1CCCCCC1	inconclusive: 16.5 µM [inhibitor, partial curve, poor fit]	–
COc1ccc2oc(C(=O)OCC(=O)N3CCCC3=O)c(C)c2c1	–	inactive: 14.8%
O=c1c2[nH]c3ccc(Br)cc3c2ncn1CCCn1ccnc1	inconclusive: 18.5 µM [inhibitor, single point]	–
CCc1ccccc1N(CC(=O)Nc1cccnc1)S(=O)(=O)c1ccccc1	inconclusive: 18.5 µM [inhibitor, single point]	–
Cc1ccccc1Nc1nc(N)nc(CSc2nnc3sc4ccccc4n23)n1	inconclusive: 18.5 µM [inhibitor, single point]	–
Cc1cc(C)cc(N(C(=O)CCC(=O)Nc2ccccn2)C(C(=O)NC(C)C)c2ccc(O)cc2)c1 (stereo unspecified)	inconclusive: 1.85 µM [inhibitor, partial curve]	–
COc1ccc(N(CC(=O)NCCSCc2ccccc2C)S(=O)(=O)c2ccccc2)cc1	active: 5.22 µM	–
CCOc1ccc(C(=O)N[C@H](C(=O)Nc2ccc(OC)c(S(=O)(=O)N3CCOCC3)c2)C(C)C)cc1	inconclusive: 9.28 µM [inhibitor, partial curve]	–
O=C(C1CCCO1)N1CCN(C(=S)Nc2ccc(Cl)c(Cl)c2)CC1 (stereo unspecified)	–	inactive: 160%
O=C(CN1CCSCC1)c1c[nH]c2ccccc12	inconclusive: 4.15 µM [inhibitor, partial curve, poor fit]	–
NC(=O)C1CCN(C(=O)CCC(=O)N2CCOc3ccc(Cl)cc32)CC1	inconclusive: 8.28 µM [inhibitor, single point]	–
CN(CC(=O)Nc1ccc(Cl)cc1)C(=O)CNC(=O)c1cccs1	–	inactive: -15.8%
CCCCC(=O)NC(c1ccco1)c1c(O)ccc2ccccc12 (stereo unspecified)	inconclusive: 10.4 µM [inhibitor, single point]	–
CC(C)(C)OC(=O)N1CCC(C(=O)N2CCC[C@H]2C(=O)O)CC1	–	inactive: 32.7%
COC(=O)C1=C(c2ccc3ccccc3c2)C[C@@H]2CC[C@H]1N2C(=O)NC1Cc2ccccc2C1	inconclusive: 11.7 µM [inhibitor, single point]	–

Structure (SMILES)	Potency	activity change, negative = inhibition
COc1cc(NC(=O)C(=O)NCCN2CCNCC2)c(OC)cc1Cl	inconclusive: 1.17 µM [inhibitor, partial curve, poor fit]	–
CCC(=O)Nc1cccc(C2=NN(c3ccccc3)C(c3ccc(OC)cc3)C2)c1 (stereo unspecified)	active: 13.1 µM	–
CCOc1ccc(NC(=O)CC2C(=O)N(c3ccccc3)C(=O)N2Cc2ccco2)cc1 (stereo unspecified)	–	inactive: -65.1%
O=C(Cc1csc(Nc2nc(=S)[nH]c3ccccc23)n1)N1CCN(c2cccc(Cl)c2)CC1	–	inactive: 19.3%
NC(=O)C1CCN(c2nc(-c3ccc(F)cc3)cs2)CC1	inconclusive: 7.38 µM [activator, partial curve]	–
CCn1nc(NC(=O)c2ccccc2)c2cc3cccc(C)c3nc21	–	inactive: -22.8%
O=C(NCC1CCCO1)c1ccc(NC(=O)c2cccc([N+](=O)[O-])c2)cc1 (stereo unspecified)	inconclusive: 18.5 µM [inhibitor, single point]	–
CCOc1ccc2nc(NC(=O)C3=NN(c4ccccc4)C(=O)CC3)sc2c1	–	inactive: 112%
O=C1NC(=O)C(CC(=O)N(Cc2ccco2)C2(C(=O)NC3CCCCC3)CCCCC2)N1 (stereo unspecified)	–	inactive: 47.5%
O=C(O)c1ccccc1-c1ccccc1C(=O)Nc1ccc(-c2nc3cc(Cl)ccc3o2)cc1	inconclusive: 7.38 µM [inhibitor, partial curve, poor fit]	–
CC(C)(C)Nc1c([N+](=O)[O-])c(=O)sc2ccccc12	–	inactive: -16.6%
CN(Cc1ccccc1)C(=O)c1ccc(NC(=O)Cc2cccc(NC(=O)C3CCN(C(=O)C4CCCCC4)CC3)c2)cc1	inconclusive: 4.65 µM [inhibitor, partial curve, poor fit]	–
COc1ccccc1OCCNc1cc(N2CCCCC2)ccc1[N+](=O)[O-]	–	inactive: -10.7%
CCOc1ccc(CC(=N)C2=C(O)CC(C)(C)CC2=O)cc1OCC	inconclusive: 10.4 µM [inhibitor, single point]	–
CCOC(=O)N1CCN(C(=O)CCn2c(=S)[nH]c3ccsc3c2=O)CC1	active: 9.28 µM	–
Cc1sc2nc(SCC(=O)N3CCOCC3)[nH]c(=O)c2c1-c1ccccc1	inconclusive: 10.4 µM [inhibitor, single point]	–
CC(=O)Cc1nsc(NC(=O)c2ccc(COc3ccccc3)o2)n1	inconclusive: 1.31 µM [inhibitor, partial curve, poor fit]	–
O=C(O)c1cc(S(=O)(=O)Nc2cccc(Oc3ccccc3)c2)ccc1Br	–	inactive: -10.5%
Cc1cc(C)c2oc(=O)cc(CN3CCCCC3)c2c1	inconclusive: 5.86 µM [inhibitor, partial curve]	–
CCN1CCCC1CNC(=O)c1cc2cc(F)ccc2[nH]1 (stereo unspecified)	inconclusive: 10.4 µM [inhibitor, single point]	–
CCOC(=O)N1CCN(c2c(NCc3ccccn3)c(=O)c2=O)CC1	inconclusive: 18.5 µM [inhibitor, single point]	–
O=C(NCc1cccnc1)Nc1ccc(F)cc1F	inconclusive: 4.15 µM [inhibitor, single point]	–
COCCNc1nnc(SCC(=O)NC(=O)c2ccccc2OC)s1	–	inactive: 35.8%
COc1cccc(CN2CCCCC2c2cccnc2)c1 (stereo unspecified)	–	inactive: 9.9%

Rewritten as a markdown table: 2 of the compounds above.

| Structure (SMILES) | Potency | activity change, negative = inhibition |
| --- | --- | --- |
| CCn1nc(NC(=O)c2ccccc2)c2cc3cccc(C)c3nc21 | – | inactive: -22.8% |
| O=C(NCC1CCCO1)c1ccc(NC(=O)c2cccc([N+](=O)[O-])c2)cc1 (stereo unspecified) | inconclusive: 18.5 µM [inhibitor, single point] | – |

The listing continues:

Structure (SMILES)	Potency	activity change, negative = inhibition
COc1cc(CCC(=O)Nc2ccc(S(=O)(=O)N3CCOCC3)cc2)cc(OC)c1OC	inconclusive: 14.7 µM [inhibitor, single point]	–
O=C(CCCN1C(=O)/C(=C/c2ccccc2)SC1=S)Nc1ccc(C(=O)O)c(O)c1	inconclusive: 16.5 µM [inhibitor, single point]	–
CCCc1cc(=O)[nH]c(SCC(=O)c2cc(C)n(CC(F)(F)F)c2C)n1	–	inactive: -3.55%
COc1cc(NC(=O)CCS(=O)(=O)c2ccc3c(c2)oc(=O)n3C)cc(OC)c1OC	active: 2.33 µM	–
Cc1cc(Cl)ccc1NC(=O)CN1CCCC1	–	inactive: -28.8%
CC(Oc1ccc(F)cc1)C(=O)N(Cc1ccccc1)c1c(N)n(Cc2ccccc2)c(=O)[nH]c1=O (stereo unspecified)	inconclusive: 13.1 µM [inhibitor, single point]	–
COCCOC(=O)c1c(C)oc2cc(Br)c(OCC(N)=O)cc12	inconclusive: 5.86 µM [inhibitor, partial curve, poor fit]	–
CCN1C(=O)CC(Sc2ccccc2N)C1=O (stereo unspecified)	active: 1.47 µM	–
Cc1cccc(NC(=O)CC2C(=O)NCCN2C(=O)Nc2ccc(Cl)cc2)c1 (stereo unspecified)	inconclusive: 18.5 µM [inhibitor, single point]	–
COCCCN1CC(=O)N2C(c3ccc(C)cc3)c3[nH]c4ccccc4c3C[C@H]2C1=O (stereo partly specified)	inconclusive: 10.4 µM [inhibitor, single point]	–
CC(=O)Nc1ccc(SCC(=O)NCCc2ccc(F)cc2)cc1	–	inactive: 2.72%
O=C(N/N=C/c1ccncc1)c1cccc(NC(=O)c2ccccc2Cl)c1	–	inactive: -26%
Cc1cc(NC(=O)C2CC=CCC2C(=O)O)no1 (stereo unspecified)	inconclusive: 8.28 µM [inhibitor, partial curve, poor fit]	–
COCCn1c(-c2ccc(OC)cc2)cnc1SCC(=O)Nc1cccc2ccccc12	active: 1.65 µM	–
Cc1cccc(NC(=O)NCC2CCN(c3ccc(S(=O)(=O)N4CCOCC4)cc3)CC2)c1	inconclusive: 10.4 µM [inhibitor, single point]	–
COc1cccc(-n2nc(C(=O)Nc3ccc4c(c3)OCO4)c3ccccc3c2=O)c1	inconclusive: 2.62 µM [inhibitor, partial curve, poor fit]	–
CCOC(=O)Nc1c2ccccc2nc2ccccc12	active: 10.4 µM	–
CCOC(=O)c1c(CN2CCCCC2)oc2ccc(OC)cc12	inactive and inconclusive: 18.5 µM [inhibitor, partial curve, poor fit]	–
COc1cc(C(=O)N2CCN(Cc3ccccc3C(F)(F)F)CC2)cc(OC)c1OC	inconclusive: 13.1 µM [inhibitor, single point]	–
CCN(CC)S(=O)(=O)c1ccc(OC)c(NS(=O)(=O)Cc2ccccc2)c1	active: 11.7 µM	–
COc1ccccc1Nc1nc(N)nc(CSc2nnc(C)s2)n1	–	inactive: 23.9%
COc1ccc(/C=C(\NC(=O)c2ccc(OC)cc2)C(=O)Nc2ccccc2C(=O)O)cc1	–	inactive: 35.1%
O=C(NCCc1c[nH]c2ccccc12)OCCCCOC(=O)NCCc1c[nH]c2ccccc12	inconclusive: 10.4 µM [inhibitor, single point]	–

In another format: 3 of the compounds above.
Cc1ccccc1Nc1nc(N)nc(CSc2nnc3sc4ccccc4n23)n1
  Potency: inconclusive: 18.5 µM [inhibitor, single point]
COC(=O)C1=C(c2ccc3ccccc3c2)C[C@@H]2CC[C@H]1N2C(=O)NC1Cc2ccccc2C1
  Potency: inconclusive: 11.7 µM [inhibitor, single point]
COc1cccc(CN2CCCCC2c2cccnc2)c1 (stereo unspecified)
  activity change, negative = inhibition: inactive: 9.9%

— PubChem BioAssay AID504834 (National Center for Advancing Translational Sciences (NCATS), 2011)
